B1: il2ra_site1_3nfp_sap_20_mot_HHH_b1_03528_000000163_0001_19_38_H_._HHH_b1_01475_0001_0000300017_0000001_0_0001 (protein)
chain: SSSSSDFIEIAKRVDELLKKAAKIPDEEEVKELLEEAERLAEEANDPIARRLVEDMKKNLSSSSS
B2: il2ra_site1_3nfp_sap_11_mot_HHH_b2_05615_000000234_0001_23_39_H_._HHH_b2_06429_0001_0000100002_0000001_0_0001 (protein)
chain: SSSSNNELAKEVQEVLREAQELKKNGNPEEAERLLEEILEEAERMGDRIARRLIEDLLRLLSSSS
B3: il2ra_site1_1z92_sap_15_mot_HHH_b1_00226_000000149_0001_43_56_H_._b925e59edd779d0086be7e3255078c1f_0001_1_0001_0000300037_0000001_0_0001 (protein)
chain: TREELIEKLAELLGLPPEVVKRDLEALERLLGDPRKAVRNFLILLRQMGKLTPEVEELLEEIART
B4: il2ra_site2_2erj_sap_24_mot_HHH_b2_05720_000000165_0001_1_18_H_._8b3018496bece20695a4731cc719293d_0001_1_0001_0000100003_0000001_0_0001 (protein)
chain: SSSSSSLHELFELASRLMHAITKGDDELFRELVEEIRRLAEELNDENAKEILEWLERAFHSSSSS
B5: il2ra_site2_2erj_normal_mot_76e6e8f7232a9e65eeaab5ff8ecb4c96_0001_000000242_0001_17_31_H_._HHH_b1_06964_0001_0001300013_0000001_0_af2pred_0001_1_af2pred_swapped (protein)
chain: SSSSSEEEEEVEELLRRAEELLKRGDPEQARQVVIEAADLAARLRNEELEKLIAELLEKIRSSSS
B6: il2ra_site2_2erj_sap_24_mot_3b06bd03f1c6bceadc68eab912867b79_0001_000000296_0001_36_50_H_._HHH_b1_01731_af2_0001_0000400019_0000001_0_0001 (protein)
chain: SSSSDLEELLEEAERLLEEGDPEEAMKVLLEAATLAFERNDEELFSRLAELAHAIARANGSSSSS
B7: il2ra_site2_2erj_sap_28_mot_6c2800a769814540b5b47941e710ff28_0001_000000197_0001_35_49_H_._HHH_b2_00897_0001_0000800014_0000001_0_0001_af2pred_0001_1_af2pred_sw … (protein)
chain: SSSSSDREEVEEEVRELLERAERIPDLREALKLMEEADKLAAEIGDPELFQLVHEVLQRLSSSSS
B8: il2ra_site2_3nfp_normal_mot_HHH_b1_05627_af2_000000038_0001_43_56_H_._HHH_b1_07216_0001_0000300022_0000001_0 (protein)
chain: SSSSKLEEYIRAALIAVEEALEEGDPEAAEKSLEAAKQAAELARDEELLEEVERLEELLKSSSSS
B9: il2ra_site2_2erj_sap_21_mot_cf89365494dbba80ae51c8475d1ce666_0001_af2_000000081_0001_35_48_H_._HHH_b2_06230_0001_0000200015_0000001_0_0001 (protein)
chain: SSSSSDERLRKLFELASRLMSARTEEEFEELFEEIEELAKELNSENIEELLRHLQKLFESSSSSS
B10: il2ra_site1_3nfp_normal_mot_HHH_b1_06850_000000137_0001_20_36_H_._07b95291b2aa50a0032af9b2c932e4da_0001_0001_0000100004_0000001_1 (protein)
chain: SAAEYAVELLLKDGVPPEEILERLREDAERMGLPPEEVLQLILEVARAVGDPELEKLVEKELEET
B11: il2ra_site1_3nfp_sap_23_mot_HHH_b1_08274_af2_000000107_0001_1_20_H_._HHH_b2_05889_af2_0001_0000600011_0000001_0_0001 (protein)
chain: DREWARQLLERALENGNLEHALRALIRYARKAGNPEFVELLEEALELAKRNPEEAIKLAEEALSK
B12: il2ra_site1_2b5i_sap_4_mot_HHH_b1_05003_000000208_0001_23_39_H_._HHH_b2_05191_0001_0000600030_0000001_0_0001 (protein)
chain: SSSDELNRVAAEIVDELAEKLGLDWEQFRELTRYAVRLIWRGVSEEEIEEEVRRLAEELRGSSSS
B13: il2ra_site1_3nfp_sap_23_mot_HHH_b1_06312_000000077_0001_1_18_H_._HHH_b1_02183_af2_0001_0000300006_0000001_0_0001 (protein)
chain: NLKRMLEQFRKAGDPLIEEIAEVLEEARRRGDREVLEEIYRLIMKFIRGELPPEEVLELVERLLK
B14: il2ra_site1_1z92_sap_11_mot_HHH_b1_01467_000000208_0001_22_39_H_._HHH_b2_05789_af2_0001_0000100013_0000001_0_0001_af2pred_dldesign_0_af2pred (protein)
chain: NIFEEIRRELEADPSFYEELARLLLRDAGGDAARAKAMADIYGRRGGIPEEVVARIKAIIDELVE
B15: il2ra_site2_2erj_sap_19_mot_HHH_b1_04810_000000187_0001_1_15_H_._82a85cb19d3401380e8a5036dcc53c2d_0001_0001_0000200003_0000001_0_0001 (protein)
chain: SSSSDWLHELYELAVRLTRLVAEGDEEEFEKVLEEVKRLAEEADSPNAREIVESLERLFRSSSSS
B16: il2ra_site2_2erj_normal_mot_HHH_b2_06411_000000092_0001_40_56_H_._HHH_b2_04892_af2_0001_0000100010_0000001_0 (protein)
chain: SSSSTEELREAYELAVKALHLISEGDPRAEEVIKELKELAEELDNPALEQIVELLEEKLGSSSSS
B17: il2ra_site2_3nfp_normal_mot_06aac5ad12d75b9fbd31e1a3f90cf818_0001_1_af2_000000264_0001_35_48_H_._HHH_b2_03912_0001_0000100004_0000001_0_af2pred_0001_af2pred (protein)
chain: SSSSEETEEFARQVVEELVEEYKLSEKDKEVLEKSAELALEAGADESYIKTWLEASAKLLSSSSS
B18: il2ra_site1_2b5i_sap_2_mot_HHH_b1_05947_000000126_0001_42_56_H_._HHH_b2_03172_0001_0000700047_0000001_0_0001_af2pred_dldesign_0_af2pred (protein)
chain: SSSSDEEYDKVEDLFKEALRLFREGKKEEAQKLLDEAEALAEKLGDAKLVAELRRLREWLKSSSS

The other results are listed elsewhere or left out.

In the assay the target is il2ra, P01589. The experiment in a line: yeast display titration.
B1: the “apparent Kd” value was “inactive: no binding seen”.

As to B2, the “apparent Kd” value was “inactive: no binding seen”.

Turning to B3, the “apparent Kd” value was “inactive: no binding seen”.

Regarding B4, the “apparent Kd” value was “inactive: no binding seen”.

As to B5, the “apparent Kd” value is “inactive: no binding seen”.

Consider B6, for which the “apparent Kd” value is “inactive: no binding seen”.

B7: the “apparent Kd” value was “inactive: no binding seen”.

Consider B8, for which the “apparent Kd” value was “inactive: no binding seen”.

On to B9, for which the “apparent Kd” value is “inactive: no binding seen”.

Consider B10, for which the “apparent Kd” value was “inactive: no binding seen”.

Regarding B11, the “apparent Kd” value was “inactive: no binding seen”.

In the case of B12, the “apparent Kd” value was “inactive: no binding seen”.

Turning to B13, the “apparent Kd” value is “inactive: no binding seen”.

Consider B14, for which the “apparent Kd” value was “inactive: no binding seen”.

On to B15, for which the “apparent Kd” value is “inactive: no binding seen”.

Turning to B16, the “apparent Kd” value is “inactive: no binding seen”.

Regarding B17, the “apparent Kd” value was “inactive: no binding seen”.

B18: the “apparent Kd” value is “inactive: no binding seen”.

For the origin of these results see PMC10163288.
